# Data: the supplement of paper PMC10849652
# Chains of the proteins cited; added tags and fusions are not shown. Lines headed by an entry give the natural chain unless they say otherwise; changes in a name come on top.
# UniProt O00217, whole entry, looked up: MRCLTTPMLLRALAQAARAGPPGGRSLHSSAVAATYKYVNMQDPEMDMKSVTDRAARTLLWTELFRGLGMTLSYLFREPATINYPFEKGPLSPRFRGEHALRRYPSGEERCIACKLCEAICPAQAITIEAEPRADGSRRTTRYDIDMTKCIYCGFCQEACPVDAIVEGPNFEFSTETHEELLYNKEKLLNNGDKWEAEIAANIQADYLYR
# UniProt Q9Y697: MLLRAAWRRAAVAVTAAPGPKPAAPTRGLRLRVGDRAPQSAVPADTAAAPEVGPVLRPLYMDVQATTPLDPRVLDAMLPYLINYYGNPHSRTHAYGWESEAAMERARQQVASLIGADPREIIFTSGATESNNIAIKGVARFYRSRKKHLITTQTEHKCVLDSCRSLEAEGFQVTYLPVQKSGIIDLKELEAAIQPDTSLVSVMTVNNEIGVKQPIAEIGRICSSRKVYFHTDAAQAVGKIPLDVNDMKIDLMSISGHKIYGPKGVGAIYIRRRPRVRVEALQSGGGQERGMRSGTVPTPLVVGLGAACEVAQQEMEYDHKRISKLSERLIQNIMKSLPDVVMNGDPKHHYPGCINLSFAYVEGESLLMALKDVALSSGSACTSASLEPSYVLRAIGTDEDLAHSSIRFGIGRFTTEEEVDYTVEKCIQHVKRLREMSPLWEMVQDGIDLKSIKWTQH
# UniProt Q9UI09, whole entry, looked up: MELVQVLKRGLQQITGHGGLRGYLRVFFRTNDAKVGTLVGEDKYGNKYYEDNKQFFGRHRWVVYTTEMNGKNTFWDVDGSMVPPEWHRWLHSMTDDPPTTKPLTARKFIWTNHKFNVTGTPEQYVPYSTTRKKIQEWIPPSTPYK
# UniProt Q96PU5: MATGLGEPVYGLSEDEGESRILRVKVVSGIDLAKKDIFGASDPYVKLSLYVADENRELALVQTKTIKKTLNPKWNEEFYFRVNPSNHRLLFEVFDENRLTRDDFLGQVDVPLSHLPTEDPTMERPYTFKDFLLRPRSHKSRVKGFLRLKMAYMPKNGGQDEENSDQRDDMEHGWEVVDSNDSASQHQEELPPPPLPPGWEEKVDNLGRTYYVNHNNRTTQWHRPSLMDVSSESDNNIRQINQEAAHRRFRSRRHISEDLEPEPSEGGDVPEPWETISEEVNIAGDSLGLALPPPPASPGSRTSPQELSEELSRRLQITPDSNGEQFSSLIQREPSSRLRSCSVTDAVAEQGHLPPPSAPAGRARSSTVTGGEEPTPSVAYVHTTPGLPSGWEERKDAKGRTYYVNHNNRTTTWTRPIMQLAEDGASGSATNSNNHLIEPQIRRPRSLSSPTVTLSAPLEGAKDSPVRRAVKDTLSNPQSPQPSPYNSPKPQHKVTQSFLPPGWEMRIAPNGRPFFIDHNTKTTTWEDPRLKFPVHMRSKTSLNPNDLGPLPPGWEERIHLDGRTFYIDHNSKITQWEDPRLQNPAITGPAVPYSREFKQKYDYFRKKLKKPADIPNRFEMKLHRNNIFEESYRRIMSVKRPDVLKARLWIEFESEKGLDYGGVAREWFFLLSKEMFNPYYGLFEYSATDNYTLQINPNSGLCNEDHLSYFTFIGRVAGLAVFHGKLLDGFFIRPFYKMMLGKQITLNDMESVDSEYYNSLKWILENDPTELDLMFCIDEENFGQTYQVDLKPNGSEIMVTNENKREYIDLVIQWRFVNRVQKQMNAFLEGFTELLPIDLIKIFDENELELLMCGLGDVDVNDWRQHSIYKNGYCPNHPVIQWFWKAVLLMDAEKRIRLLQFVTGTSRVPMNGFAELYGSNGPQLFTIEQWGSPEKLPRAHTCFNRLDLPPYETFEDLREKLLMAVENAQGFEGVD
# UniProt Q9H9Q4: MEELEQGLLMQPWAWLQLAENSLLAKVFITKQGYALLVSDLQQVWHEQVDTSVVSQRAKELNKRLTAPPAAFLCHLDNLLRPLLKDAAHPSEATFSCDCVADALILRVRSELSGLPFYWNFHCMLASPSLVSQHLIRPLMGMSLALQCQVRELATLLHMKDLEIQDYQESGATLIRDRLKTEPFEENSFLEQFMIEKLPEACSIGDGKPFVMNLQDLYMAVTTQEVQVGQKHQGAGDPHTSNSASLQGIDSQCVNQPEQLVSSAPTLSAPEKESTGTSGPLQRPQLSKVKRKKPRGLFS
# UniProt Q9NVZ3: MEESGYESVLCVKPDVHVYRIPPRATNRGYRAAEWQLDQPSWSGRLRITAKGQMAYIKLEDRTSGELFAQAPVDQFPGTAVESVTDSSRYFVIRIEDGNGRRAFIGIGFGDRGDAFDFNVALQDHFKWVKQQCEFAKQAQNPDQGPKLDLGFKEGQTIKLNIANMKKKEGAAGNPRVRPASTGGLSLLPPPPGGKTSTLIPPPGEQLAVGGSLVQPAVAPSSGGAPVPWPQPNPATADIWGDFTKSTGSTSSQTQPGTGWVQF
# UniProt Q7RTR2: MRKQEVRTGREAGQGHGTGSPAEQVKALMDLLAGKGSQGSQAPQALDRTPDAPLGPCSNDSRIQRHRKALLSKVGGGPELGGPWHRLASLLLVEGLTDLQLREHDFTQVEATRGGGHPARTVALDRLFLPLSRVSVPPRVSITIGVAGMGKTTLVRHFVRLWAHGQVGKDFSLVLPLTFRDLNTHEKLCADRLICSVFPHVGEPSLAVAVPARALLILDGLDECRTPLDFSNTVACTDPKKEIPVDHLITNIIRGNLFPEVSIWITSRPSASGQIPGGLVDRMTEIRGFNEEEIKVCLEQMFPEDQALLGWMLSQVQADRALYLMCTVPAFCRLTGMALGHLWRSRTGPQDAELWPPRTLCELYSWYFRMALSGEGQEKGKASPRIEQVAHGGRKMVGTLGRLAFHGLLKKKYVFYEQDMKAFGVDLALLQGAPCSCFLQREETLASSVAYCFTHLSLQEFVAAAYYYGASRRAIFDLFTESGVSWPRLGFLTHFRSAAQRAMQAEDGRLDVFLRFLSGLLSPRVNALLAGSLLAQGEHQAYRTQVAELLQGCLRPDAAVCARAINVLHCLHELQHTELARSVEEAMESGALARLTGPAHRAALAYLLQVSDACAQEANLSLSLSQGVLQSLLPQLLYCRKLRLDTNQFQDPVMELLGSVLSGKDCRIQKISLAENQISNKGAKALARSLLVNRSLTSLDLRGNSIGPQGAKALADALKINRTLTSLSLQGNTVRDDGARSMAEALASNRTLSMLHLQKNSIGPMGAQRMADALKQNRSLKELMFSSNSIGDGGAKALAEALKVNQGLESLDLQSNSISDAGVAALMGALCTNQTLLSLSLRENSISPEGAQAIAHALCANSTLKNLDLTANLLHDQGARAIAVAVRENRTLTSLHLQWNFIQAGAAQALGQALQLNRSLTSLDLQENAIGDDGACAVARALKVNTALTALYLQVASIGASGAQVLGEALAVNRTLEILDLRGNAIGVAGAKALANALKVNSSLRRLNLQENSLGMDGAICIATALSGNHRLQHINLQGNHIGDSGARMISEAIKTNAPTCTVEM
# UniProt Q9GZM8: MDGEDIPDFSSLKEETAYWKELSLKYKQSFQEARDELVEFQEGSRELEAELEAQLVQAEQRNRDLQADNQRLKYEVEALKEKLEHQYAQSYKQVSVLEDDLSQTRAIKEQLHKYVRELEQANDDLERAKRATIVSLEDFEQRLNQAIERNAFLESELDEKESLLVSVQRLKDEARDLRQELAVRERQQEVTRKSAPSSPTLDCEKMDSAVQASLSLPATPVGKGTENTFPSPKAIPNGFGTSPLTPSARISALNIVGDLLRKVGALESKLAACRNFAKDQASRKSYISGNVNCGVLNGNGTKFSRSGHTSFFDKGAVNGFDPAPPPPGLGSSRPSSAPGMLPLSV
# UniProt P25208: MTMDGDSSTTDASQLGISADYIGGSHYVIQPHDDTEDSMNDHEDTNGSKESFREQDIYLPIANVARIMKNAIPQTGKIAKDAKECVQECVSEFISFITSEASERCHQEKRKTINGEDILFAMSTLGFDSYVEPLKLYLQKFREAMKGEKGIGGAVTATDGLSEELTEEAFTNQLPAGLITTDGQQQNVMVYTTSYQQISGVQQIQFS
# UniProt Q92692, whole entry, looked up: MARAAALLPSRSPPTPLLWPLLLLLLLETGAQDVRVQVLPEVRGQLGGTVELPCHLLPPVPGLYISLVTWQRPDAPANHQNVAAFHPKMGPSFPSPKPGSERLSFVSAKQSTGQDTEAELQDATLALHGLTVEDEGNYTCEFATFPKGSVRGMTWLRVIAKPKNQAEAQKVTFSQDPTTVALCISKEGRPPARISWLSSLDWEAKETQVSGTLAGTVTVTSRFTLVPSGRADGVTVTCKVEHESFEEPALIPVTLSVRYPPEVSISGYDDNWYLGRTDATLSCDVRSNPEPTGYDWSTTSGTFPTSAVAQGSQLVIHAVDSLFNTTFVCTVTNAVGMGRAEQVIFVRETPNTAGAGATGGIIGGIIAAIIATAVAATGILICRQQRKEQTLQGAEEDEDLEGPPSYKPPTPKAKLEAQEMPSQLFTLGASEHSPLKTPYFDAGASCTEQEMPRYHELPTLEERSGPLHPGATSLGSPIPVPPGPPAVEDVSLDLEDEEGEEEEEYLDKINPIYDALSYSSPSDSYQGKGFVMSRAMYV
# UniProt Q9P0J0, whole entry, looked up: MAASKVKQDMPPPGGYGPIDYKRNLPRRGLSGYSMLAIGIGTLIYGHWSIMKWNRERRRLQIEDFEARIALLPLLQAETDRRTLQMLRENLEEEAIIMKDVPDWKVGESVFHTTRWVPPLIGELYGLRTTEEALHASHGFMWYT
# UniProt Q16718, whole entry, looked up: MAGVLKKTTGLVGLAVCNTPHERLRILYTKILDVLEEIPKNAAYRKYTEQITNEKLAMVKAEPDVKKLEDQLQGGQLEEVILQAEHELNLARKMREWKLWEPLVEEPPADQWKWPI
# UniProt Q9P032: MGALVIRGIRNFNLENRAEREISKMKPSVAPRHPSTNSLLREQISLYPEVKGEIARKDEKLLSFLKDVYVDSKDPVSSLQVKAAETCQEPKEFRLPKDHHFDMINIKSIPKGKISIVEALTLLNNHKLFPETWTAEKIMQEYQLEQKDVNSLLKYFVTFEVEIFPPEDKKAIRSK
# UniProt O95169, whole entry, looked up: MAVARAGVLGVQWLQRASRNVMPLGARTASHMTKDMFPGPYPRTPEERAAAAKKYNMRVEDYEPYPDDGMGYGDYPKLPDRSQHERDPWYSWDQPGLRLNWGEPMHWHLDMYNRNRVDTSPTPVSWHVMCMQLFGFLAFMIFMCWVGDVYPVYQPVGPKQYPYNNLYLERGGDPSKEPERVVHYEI
# UniProt O75323: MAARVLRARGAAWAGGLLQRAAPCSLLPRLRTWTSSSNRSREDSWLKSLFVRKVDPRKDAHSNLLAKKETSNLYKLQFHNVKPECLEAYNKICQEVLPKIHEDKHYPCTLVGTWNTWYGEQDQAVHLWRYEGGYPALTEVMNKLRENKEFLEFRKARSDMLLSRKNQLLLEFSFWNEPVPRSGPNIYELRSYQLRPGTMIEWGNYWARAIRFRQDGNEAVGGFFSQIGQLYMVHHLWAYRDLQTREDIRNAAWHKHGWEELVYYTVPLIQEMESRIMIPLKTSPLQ
# UniProt Q6ZNB6: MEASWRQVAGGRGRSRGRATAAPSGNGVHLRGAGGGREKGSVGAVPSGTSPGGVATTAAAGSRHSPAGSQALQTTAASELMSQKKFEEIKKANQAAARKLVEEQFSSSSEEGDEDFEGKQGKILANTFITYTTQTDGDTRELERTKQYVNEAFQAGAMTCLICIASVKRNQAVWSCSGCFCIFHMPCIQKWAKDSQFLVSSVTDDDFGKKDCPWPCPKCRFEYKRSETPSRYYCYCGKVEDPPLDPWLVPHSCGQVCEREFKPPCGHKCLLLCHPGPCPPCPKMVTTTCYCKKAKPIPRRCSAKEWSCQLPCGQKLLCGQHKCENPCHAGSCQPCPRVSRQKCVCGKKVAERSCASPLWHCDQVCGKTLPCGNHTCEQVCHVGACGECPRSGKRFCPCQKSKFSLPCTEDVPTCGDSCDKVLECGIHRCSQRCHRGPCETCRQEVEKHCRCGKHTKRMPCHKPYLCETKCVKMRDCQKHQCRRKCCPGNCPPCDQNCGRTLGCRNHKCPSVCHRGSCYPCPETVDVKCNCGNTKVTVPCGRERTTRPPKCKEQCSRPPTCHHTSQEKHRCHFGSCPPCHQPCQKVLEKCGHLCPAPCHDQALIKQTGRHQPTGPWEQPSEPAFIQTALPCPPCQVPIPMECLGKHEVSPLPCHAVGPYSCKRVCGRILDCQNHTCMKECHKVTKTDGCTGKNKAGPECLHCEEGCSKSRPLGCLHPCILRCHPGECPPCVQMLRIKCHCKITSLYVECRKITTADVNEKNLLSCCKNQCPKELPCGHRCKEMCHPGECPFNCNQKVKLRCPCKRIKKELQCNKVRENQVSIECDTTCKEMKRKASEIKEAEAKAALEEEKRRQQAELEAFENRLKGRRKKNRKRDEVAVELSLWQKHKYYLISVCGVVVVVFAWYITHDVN
# UniProt Q9NQR4: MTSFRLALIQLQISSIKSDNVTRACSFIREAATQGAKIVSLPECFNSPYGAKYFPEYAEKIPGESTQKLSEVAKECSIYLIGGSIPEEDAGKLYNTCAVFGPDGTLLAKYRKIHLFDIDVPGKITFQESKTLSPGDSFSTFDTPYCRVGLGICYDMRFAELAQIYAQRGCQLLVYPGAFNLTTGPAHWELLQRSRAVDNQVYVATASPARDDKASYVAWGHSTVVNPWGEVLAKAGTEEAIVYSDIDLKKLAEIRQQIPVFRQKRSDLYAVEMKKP
# This is one part of the list.
# Columns and labels:
# Test in all cases: log2 fold change, soluble protein after heating vs DMSO (PISA); higher = thermal stabilisation; K562 lysate, 10 uM; active = over 0.2 and 3.5 SD of the protein, either way, in both replicates (recomputed)
# [1] = compound: NCC(=O)Nc1ccc(-n2nc(C(F)(F)F)cc2-c2ccc3c(ccc4ccccc43)c2)cc1
# Method in brief: (§1)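 Soluble protein was defined as the supernatant remaining after 21,000xg for 90 min, following pooling of heated aliquots and adjustment to 0.5% NP-40 at 4°C. Before that, crude K562 extract at 1 mg/mL protein in PBS pH 7.4 with 1 mM MgCl2 was treated with 10 μM compound for 30 min and heated for 3 min across 48°C-58°C. Quantification used TMTpro 16plex LC-MS/MS with channel sums equalised, and values are log-two fold changes in thermal stability relative to solvent controls from duplicates.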
# vorinostat = compound: O=C(CCCCCCC(=O)Nc1ccccc1)NO [vorinostat]
# Method in brief: as §1
# silmitasertib = compound: O=C(O)c1ccc2c(c1)nc(Nc1cccc(Cl)c1)c1ccncc12 [silmitasertib]
# Method in brief: as §1
# [2] = compound: O=C1NC(=O)C(c2cnc3ccccn23)=C1c1cn2c3c(cc(F)cc13)CN(C(=O)N1CCCCC1)CC2
# Method in brief: as §1
# entospletinib = compound: c1cn2cc(-c3ccc4cn[nH]c4c3)nc(Nc3ccc(N4CCOCC4)cc3)c2n1 [entospletinib]
# Method in brief: as §1
Target,log2 fold change [1],log2 fold change (vorinostat),log2 fold change (silmitasertib),log2 fold change [2],log2 fold change (entospletinib)
NDUFS1 isoform 2 (UniProt P28331),inactive: -0.006,inactive: 0.118,inactive: 0.032,inactive: -0.052,inactive: -0.014
NIBAN1 (UniProt Q9BZQ8),inactive: -0.006,inactive: -0.187,inactive: 0.03,inactive: -0.003,inactive: 0.014
NEURL4 (UniProt Q96JN8),inactive: 0.025,inactive: 0.079,inactive: 0.16,inactive: -0.316,inactive: -0.119
NFATC2 (UniProt Q13469),inactive: 0.02,active: -0.411,inactive: 0.021,inactive: 0.044,inactive: -0.062
NELFA (UniProt Q9H3P2),inactive: -0.057,active: -0.309,inactive: -0.004,inactive: 0.008,inactive: -0.027
NECAP1 (UniProt Q8NC96),inactive: -0.028,inactive: -0.025,inactive: 0.006,inactive: 0.045,inactive: 0.002
NDUFB6 (UniProt O95139),inactive: -0.026,inactive: 0.085,inactive: -0.027,inactive: 0.014,inactive: -0.073
NDUFS8 (UniProt O00217),inactive: -0.042,inactive: 0.124,inactive: 0.02,inactive: 0.009,inactive: -0.023
NFS1 (UniProt Q9Y697),inactive: 0.022,inactive: 0.001,inactive: 0.007,inactive: -0.018,inactive: -0.02
NLE1 (UniProt Q9NVX2),inactive: 0.003,inactive: 0.105,inactive: -0.005,inactive: -0.043,inactive: 0.017
NFX1 (UniProt Q12986),inactive: 0.039,inactive: -0.023,inactive: -0.024,inactive: -0.018,inactive: -0.083
NDUFA12 (UniProt Q9UI09),inactive: -0.108,inactive: 0.081,inactive: 0,inactive: 0.064,inactive: 0.016
NLRP2 (UniProt Q9NX02),inactive: -0.031,active: -0.528,inactive: 0.062,inactive: -0.015,inactive: 0.011
NEDD4L (UniProt Q96PU5),inactive: -0.02,inactive: -0.077,inactive: 0.054,inactive: -0.008,inactive: 0.016
NHEJ1 (UniProt Q9H9Q4),inactive: 0.029,inactive: 0.052,inactive: -0.06,inactive: -0.005,inactive: 0.009
NDUFS2 (UniProt O75306),inactive: 0.011,inactive: 0.056,inactive: -0.012,inactive: 0,inactive: -0.009
NDUFB5 (UniProt O43674),inactive: -0.01,inactive: 0.151,inactive: 0.059,inactive: -0.02,inactive: -0.017
NECAP2 (UniProt Q9NVZ3),inactive: 0,inactive: 0.03,inactive: -0.006,inactive: 0.007,inactive: 0.019
NEBL isoform 2 (UniProt O76041),inactive: -0.019,inactive: 0.146,inactive: -0.019,inactive: -0.016,inactive: -0.01
NF1 (UniProt P21359),inactive: 0.03,active: -0.634,inactive: 0.037,inactive: 0.01,inactive: 0.025
NDUFAF5 (UniProt Q5TEU4),inactive: -0.023,inactive: 0.065,inactive: 0.002,inactive: -0.006,inactive: -0.046
NDUFV2 (UniProt P19404),inactive: -0.001,inactive: 0.095,inactive: 0.022,inactive: -0.013,inactive: -0.027
NELFB isoform 2 (UniProt Q8WX92),inactive: 0.028,inactive: -0.109,inactive: 0.001,inactive: -0.02,inactive: 0.038
NHP2 (UniProt Q9NX24),inactive: 0.029,inactive: 0.105,inactive: 0,inactive: -0.046,inactive: -0.005
NLRC3 isoform 2 (UniProt Q7RTR2),inactive: 0.054,inactive: 0.049,inactive: -0.026,inactive: 0.031,inactive: -0.006
NDUFAF2 (UniProt Q8N183),inactive: 0.037,inactive: 0.171,inactive: -0.011,inactive: -0.03,inactive: 0.003
NDEL1 isoform 2 (UniProt Q9GZM8),inactive: 0.002,inactive: 0.012,inactive: -0.09,inactive: -0.014,inactive: 0.021

Target,log2 fold change [1],log2 fold change (vorinostat),log2 fold change (silmitasertib),log2 fold change [2],log2 fold change (entospletinib)
NDRG3 (UniProt Q9UGV2),inactive: 0.044,inactive: -0.004,inactive: 0.017,inactive: 0.012,inactive: 0.009
NFYB (UniProt P25208),inactive: 0.156,inactive: 0.065,inactive: 0.012,inactive: 0.019,inactive: -0.001
NECTIN2 (UniProt Q92692),inactive: -0.007,inactive: 0.126,inactive: 0.013,inactive: -0.031,inactive: 0.019
NHLRC2 (UniProt Q8NBF2),inactive: -0.001,inactive: -0.022,inactive: 0.051,inactive: -0.003,inactive: -0.004
NES (UniProt P48681),inactive: 0.052,inactive: -0.045,inactive: -0.005,inactive: -0.02,inactive: -0.023
NEBL (UniProt O76041),inactive: 0.056,inactive: 0.207,inactive: 0.052,inactive: -0.026,inactive: -0.018
NDRG2 (UniProt Q9UN36),inactive: 0.01,inactive: 0.021,inactive: -0.026,inactive: 0.026,inactive: -0.001
NDUFA13 (UniProt Q9P0J0),inactive: -0.007,inactive: 0.087,inactive: 0.013,inactive: -0.01,inactive: 0.023
NDUFB11 isoform 2 (UniProt Q9NX14),inactive: -0.047,inactive: 0.165,inactive: -0.019,inactive: 0.022,inactive: -0.1
NDUFA5 (UniProt Q16718),inactive: 0,inactive: 0.079,inactive: -0.034,inactive: 0.013,inactive: -0.067
NFKBIB (UniProt Q15653),inactive: -0.052,inactive: -0.204,inactive: 0.04,inactive: 0.024,inactive: 0
NDUFAF4 (UniProt Q9P032),inactive: 0.03,inactive: 0.045,inactive: 0.016,inactive: 0.015,inactive: -0.013
NDOR1 isoform 2 (UniProt Q9UHB4),inactive: 0.005,inactive: -0.026,inactive: -0.017,inactive: 0.024,inactive: -0.071
NDUFS4 (UniProt O43181),inactive: 0.005,inactive: 0.197,inactive: 0.007,inactive: -0.03,inactive: -0.013
NFATC3 (UniProt Q12968),inactive: 0.031,inactive: -0.146,inactive: -0.033,inactive: -0.006,inactive: 0.032
NDUFB8 (UniProt O95169),inactive: -0.066,inactive: 0.172,inactive: -0.025,inactive: 0.018,inactive: -0.094
NIPSNAP2 (UniProt O75323),inactive: 0.01,inactive: 0.004,inactive: -0.074,inactive: 0.009,inactive: 0.099
NDUFB7 (UniProt P17568),inactive: -0.008,inactive: 0.181,inactive: -0.042,inactive: 0.042,inactive: -0.028
NFATC1 (UniProt O95644),inactive: 0.014,active: -0.364,inactive: 0.07,inactive: 0.033,inactive: -0.047
NFXL1 (UniProt Q6ZNB6),inactive: -0.016,inactive: -0.102,inactive: 0.01,inactive: 0.031,inactive: -0.027
NIT2 (UniProt Q9NQR4),inactive: -0.001,active: 0.346,inactive: -0.001,inactive: -0.007,inactive: 0.004
NELFE (UniProt P18615),inactive: 0.039,inactive: 0.018,inactive: -0.007,inactive: -0.021,inactive: -0.016
NDUFA3 (UniProt O95167),inactive: -0.017,inactive: 0.121,inactive: 0.033,inactive: 0.014,inactive: 0.009
NEK7 (UniProt Q8TDX7),inactive: -0.037,active: -0.338,inactive: 0.105,inactive: 0.003,inactive: 0.012
NEDD8 (UniProt Q15843),inactive: -0.033,inactive: 0.195,inactive: -0.12,inactive: 0.038,inactive: -0.082
NIPSNAP1 (UniProt Q9BPW8),inactive: 0.065,inactive: 0.122,inactive: -0.004,inactive: 0.024,inactive: 0.002

# Whole records, quoted from the list. Order of values: log2 fold change [1] | log2 fold change (vorinostat) | log2 fold change (silmitasertib) | log2 fold change [2] | log2 fold change (entospletinib)
# NEDD4L (UniProt Q96PU5) is listed with inactive: -0.02 | inactive: -0.077 | inactive: 0.054 | inactive: -0.008 | inactive: 0.016
# NECAP2 (UniProt Q9NVZ3) is listed with inactive: 0 | inactive: 0.03 | inactive: -0.006 | inactive: 0.007 | inactive: 0.019
# NLRP2 (UniProt Q9NX02) is listed with inactive: -0.031 | active: -0.528 | inactive: 0.062 | inactive: -0.015 | inactive: 0.011
# NDUFV2 (UniProt P19404) is listed with inactive: -0.001 | inactive: 0.095 | inactive: 0.022 | inactive: -0.013 | inactive: -0.027
